Assay results as given in article PMC5314175.
These are yes or no findings as the source states them, for the method shown. Binding seen in cells or lysates may run through a third protein. Binding can be weak; no strength is given.

Molecular target: V5-tagged Exo1 with the C-terminal regulatory region deleted
Assay: co-IP; full-length and truncated V5-tagged Exo1 expressed in HEK-293 cells, immunoprecipitated with V5 antibody, blot probed for EEPD1; from 300 ug of total cell lysate

binding: binds weakly
B1: native EEPD1 (endogenous, HEK-293) (enzyme, UniProt Q7L9B9 1-569)
chain: MGSTLGCHRSIPRDPSDLSHSRKFSAACNFSNILVNQERLNINTATEEELMTLPGVTRAVARSIVEYREYIGGFKKVEDLALVSGVGATKLEQVKFEICVSSKGSSAQHSPSSLRRDLLAEQQPHHLATAVPLTPRVNINTATPAQLMSVRGLSEKMALSIVDFRREHGPFRSVEDLVRMDGINAAFLDRIRHQVFAERSRPPSTHTNGGLTFTAKPHPSPTSLSLQSEDLDLPPGGPTQIISTRPSVEAFGGTRDGRPVLRLATWNLQGCSVEKANNPGVREVVCMTLLENSIKLLAVQELLDREALEKFCTELNQPTLPNIRKWKGPRGCWKAVVAEKPSSQLQKGAGYAGFLWDAAAGMELRDAGSQESSPSNGHGKLAGPSPYLGRFKVGSHDLTLVNLHLAALTLLGSENPSKNHSDGHRLASFAQTLQETLKGEKDVIILGDFGQGPDSNDYDILRKEKFHHLIPAHTFTNISTKNPQGSKSLDNIWISKSLKKVFTGHWAVVREGLTNPWIPDNWSWGGVASEHCPVLAEFYTEKDWSKKDAPRNGSGVALERSEANIKHER
